Measurements reported in PubChem BioAssay AID493246 (Drosophila RNAi Screening Center, 2011)

- Screen: 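Identify essential fly genes by loss of cell viability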 (primary screen)
- Cell system: Drosophila Kc and S2R+ cells
- Reagents: long dsRNA against Drosophila genes
- Measurement: 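Cell number per well after knock-down, printed as raw plate values; calls were based on per-plate z-scores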
- Scale: Kc cell number and S2R+ cell number: higher = more cells remaining
- Rule for the call: 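Active when the per-plate z-score of cell number is 3 or more in the direction of fewer cells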
The screen tested about 21,000 reagents; this is a random part of those that have a named target and a result. Of all reagents, 429 (2%) got an active call. 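Values are raw and not normalised between plates; calls rest on per-plate z-scores that were not deposited.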 A number with no mark means an inactive call. Reagents against one gene are numbered here. Not stated in the record: the amount of reagent, the time to read-out.

gene knocked down	reagent no.	Kc cell number, rep 1	Kc cell number, rep 2	S2R+ cell number, rep 1	S2R+ cell number, rep 2
Lcp1Psi	1	1.60e6	1.72e6	1.03e6	1.20e6
CG13065	1	1.42e6	1.58e6	1.25e6	1.36e6
CG42784	1	1.31e6	1.33e6	1.31e6	1.29e6
CG42784	2	1.53e6	1.62e6	9.25e5	1.02e6
CG14607	1	1.63e6	1.77e6	1.43e6	1.58e6
CG11353	1	1.49e6	1.65e6	1.30e6	1.13e6
Eig71Ei	1	1.33e6	1.37e6	1.18e6	1.33e6
CG13392	1	1.52e6	1.60e6	1.24e6	1.36e6
CG13681 (retired record)	1	1.45e6	1.48e6	1.12e6	1.29e6
CG13681 (retired record)	2	1.52e6	1.56e6	1.14e6	1.34e6
CG13681 (retired record)	3	1.32e6	1.22e6	1.27e6	1.24e6
CG13681 (retired record)	4	1.32e6	1.50e6	1.24e6	1.28e6
CG13681 (retired record)	5	1.43e6	1.37e6	1.26e6	1.32e6
CG13681 (retired record)	6	1.47e6	1.60e6	1.38e6	1.36e6
Rac2	1	1.31e6	1.18e6	1.17e6	1.23e6

Next part, starting with the last 2 of the part before.
gene knocked down	reagent no.	Kc cell number, rep 1	Kc cell number, rep 2	S2R+ cell number, rep 1	S2R+ cell number, rep 2
CG13681 (retired record)	6	1.47e6	1.60e6	1.38e6	1.36e6
Rac2	1	1.31e6	1.18e6	1.17e6	1.23e6
CG7149	1	1.40e6	1.61e6	2.50e5	3.16e5
Aef1	1	1.43e6	1.48e6	1.28e6	1.39e6
Rrp42	1	1.46e6	1.52e6	1.10e6	1.18e6
Ahcy	1	4.79e5		8.28e5	
Lcp65Ad	1	1.49e6	1.55e6	1.07e6	1.20e6
ND-MLRQ	1	1.56e6	1.71e6	1.17e6	1.33e6
CG5928	1	1.34e6	1.34e6	1.04e6	1.16e6
veg (retired record)	1	1.47e6	1.59e6	1.17e6	1.24e6
Edem2	1	1.88e6	1.92e6	1.35e6	1.48e6
GatB	1	1.63e6	1.60e6	1.02e6	1.12e6
CG15452	1	1.46e6	1.50e6	1.06e6	1.16e6
CG3513	1	1.57e6	1.49e6	1.17e6	1.31e6
RYBP	1	1.42e6	1.49e6	1.07e6	1.12e6
CG30098	1	4.81e5		7.57e5	
CG17032	1	1.34e6	1.52e6	1.20e6	1.30e6
mirr	1	1.64e6	1.71e6	1.35e6	1.46e6
CG34032 (retired record)	1	1.60e6	1.84e6	1.09e6	1.27e6
CG9008	1	1.27e6	1.31e6	1.10e6	1.04e6
CG42336	1	1.56e6	1.61e6	1.07e6	1.17e6
CG42336	2	1.55e6	1.66e6	1.36e6	1.43e6
CG42336	3	1.67e6	1.63e6	1.08e6	1.26e6
CG32214	1	1.46e6	1.51e6	1.03e6	1.22e6
htt	1	1.46e6	1.48e6	1.01e6	1.10e6
CG1607	1	5.30e5		8.00e5	
Or42a	1	1.50e6	1.49e6	1.33e6	1.29e6
